From the supplement of paper PMC10727501 come the findings set out here.

The structures appear in SMILES notation. The list shows a part of the results. Single values are uncertain here, since repeats match poorly.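 Free-swimming zebrafish larvae were scored for O-bend response probability to dark flashes (naive: first five; training: remaining flashes of four 60-flash blocks; test: later 60-flash block) and for turning toward alternating leftward/rightward LED motion (OMR). Six treated larvae were compared with sixty 0.1% DMSO controls; |SSMD|≥2 defined a hit.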

Conditions in all cases: 10 µM; pre-incubation: 30-90 min
The test system of assay [1] is Danio rerio larvae (5 dpf, TLF). Nature of the assay: OMR-Perf (SSMD vs DMSO vehicle); higher = higher than vehicle (e.g. higher dark-flash O-bend response probability, or better optomotor performance).
Assay [2] shares this test system. Nature of the assay: Prob-Test (SSMD vs DMSO vehicle); higher = higher than vehicle (e.g. higher dark-flash O-bend response probability, or better optomotor performance).
Assay [3] has the same test system. Nature of the assay: Prob-Naive (SSMD vs DMSO vehicle); higher = higher than vehicle (e.g. higher dark-flash O-bend response probability, or better optomotor performance).
Assay [4] has the same test system. Description: Prob-Train (SSMD vs DMSO vehicle); higher = higher than vehicle (e.g. higher dark-flash O-bend response probability, or better optomotor performance).

On to `COc1cc(CCC(C)=O)ccc1O` [Vanillylacetone], for which, in assay [1], the OMR-Perf worked out at 0.0345. The same compound displayed a Prob-Test in assay [2] of -0.294. For the same compound, in assay [3], the Prob-Naive came to 0.516. In assay [4], this compound yielded a Prob-Train of 0.23.
As for `Nc1nc(Cl)nc2c1ncn2[C@H]1C[C@H](O)[C@@H](CO)O1` [Cladribine], in assay [1], the OMR-Perf worked out at 0.0236. In assay [2], this compound showed a Prob-Test of 0.863. The compound further showed a Prob-Naive in assay [3] of -0.0954. In assay [4], this compound returned a Prob-Train of 0.148.
Regarding `COCC(=O)NC/C=C/c1ccc2ncnc(Nc3ccc(Oc4ccc(C)nc4)c(C)c3)c2c1`, the OMR-Perf in assay [1] came to 0.322. For the same compound, the Prob-Test in assay [2] is -0.116. The same compound gave a Prob-Naive in assay [3] of 0.471. In assay [4], this compound had a Prob-Train of -0.445.
In the case of `CNCC[C@@H](Oc1ccccc1C)c1ccccc1.Cl` [Atomoxetine HCl], the OMR-Perf in assay [1] was 0.398. This compound also showed a Prob-Test in assay [2] of 0.562. For the same compound, the Prob-Naive in assay [3] was found to be 0.391. Moreover, the Prob-Train in assay [4] stood at 0.265.
With `COc1cc2ncnc(Oc3cccc(NC(=O)Nc4cc(C(C)(C)C(F)(F)F)on4)c3)c2cc1OC`, in assay [1], the OMR-Perf was determined as 0.119. This compound also registered a Prob-Test in assay [2] of -0.468. For the same compound, the Prob-Naive in assay [3] is -0.193. In assay [4], the Prob-Train was -0.0417.
In turn, `O=C1c2c(O)cc(O)cc2O[C@H](c2ccc(O)c(O)c2)[C@H]1O` [Taxifolin (Dihydroquercetin)] came in with an OMR-Perf in assay [1] of -0.236. In addition, the Prob-Test in assay [2] was -0.506. In assay [3], this compound displayed a Prob-Naive of -0.311. Also, the Prob-Train in assay [4] was -0.195.
Consider `CC(C)(CO)c1cc2cc(NC(=O)C3(c4ccc5c(c4)OC(F)(F)O5)CC3)c(F)cc2n1C[C@@H](O)CO`, for which, in assay [1], the OMR-Perf is -0.616. The Prob-Test in assay [2] came out at 0.463. Further, the Prob-Naive in assay [3] is 0.0404. In addition, the Prob-Train in assay [4] stood at 0.439.
With `Cc1ccc(S(=O)(=O)Nc2nc3ccccc3nc2Nc2ccc3nsnc3c2)cc1`, the OMR-Perf in assay [1] was -0.276. For the same compound, the Prob-Test in assay [2] is -0.219. The compound further displayed a Prob-Naive in assay [3] of -0.605. Further, in assay [4], the Prob-Train is -0.485.
Turning to `COc1cc(N2CCC(N(C)C)CC2)ccc1Nc1ncc(Cl)c(Nc2ccccc2P(C)(C)=O)n1`, in assay [1], the OMR-Perf was determined as 0.357. This compound also came in with a Prob-Test in assay [2] of 0.0861. In assay [3], this compound returned a Prob-Naive of 0.319. In assay [4], the Prob-Train came out at 0.27.
